Some of the results follow. Most entries show no effect beyond the scatter of the controls.
Compound: CN[C@@H]1C[C@H]2O[C@@](C)([C@@H]1OC)n1c3ccccc3c3c4c(c5c6ccccc6n2c5c31)C(=O)NC4 [staurosporine]
Test: log2 fold change of tryptic peptide abundance, ligand vs vehicle (limited proteolysis) (log2 ratio); higher = more trypsin-susceptible (destabilized)
Conditions: ligand concentration: 20 uM; sample: K562 cleared lysate; digestion: 4 min, 22 C (HT-PELSA RT4min, Orbitrap Astral)

By UniProt entry, the sequences of proteins in these tests, tags left out. Where a name states a change or a piece, a line headed by the entry shows the natural chain unless it says otherwise.
UniProt Q8N9Z2: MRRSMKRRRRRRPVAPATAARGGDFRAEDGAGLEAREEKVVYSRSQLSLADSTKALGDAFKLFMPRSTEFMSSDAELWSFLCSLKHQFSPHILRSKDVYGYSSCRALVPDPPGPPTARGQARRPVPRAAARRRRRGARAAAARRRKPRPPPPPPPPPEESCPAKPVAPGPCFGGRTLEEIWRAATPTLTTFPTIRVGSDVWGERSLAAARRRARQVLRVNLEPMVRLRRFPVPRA
UniProt Q8TBM8: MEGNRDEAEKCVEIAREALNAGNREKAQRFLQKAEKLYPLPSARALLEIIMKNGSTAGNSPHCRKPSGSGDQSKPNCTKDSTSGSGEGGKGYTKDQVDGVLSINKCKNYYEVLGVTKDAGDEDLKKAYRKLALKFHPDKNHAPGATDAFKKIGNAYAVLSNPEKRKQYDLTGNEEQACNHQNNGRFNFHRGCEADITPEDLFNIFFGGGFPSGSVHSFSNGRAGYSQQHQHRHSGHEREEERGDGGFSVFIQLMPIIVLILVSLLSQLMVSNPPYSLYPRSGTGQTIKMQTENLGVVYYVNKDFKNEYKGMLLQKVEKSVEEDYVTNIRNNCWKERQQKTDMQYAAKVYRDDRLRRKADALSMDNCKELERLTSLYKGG
UniProt Q8ND90: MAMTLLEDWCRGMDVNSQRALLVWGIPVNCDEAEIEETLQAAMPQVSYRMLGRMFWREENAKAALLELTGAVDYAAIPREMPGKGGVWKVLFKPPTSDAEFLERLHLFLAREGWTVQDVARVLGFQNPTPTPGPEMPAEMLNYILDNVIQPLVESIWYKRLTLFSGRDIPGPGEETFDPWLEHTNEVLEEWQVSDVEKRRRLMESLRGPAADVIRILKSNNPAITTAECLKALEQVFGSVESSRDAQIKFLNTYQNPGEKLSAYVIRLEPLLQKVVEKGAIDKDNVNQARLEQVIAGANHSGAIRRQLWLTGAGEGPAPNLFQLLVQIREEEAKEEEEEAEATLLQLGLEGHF
UniProt Q8ND04: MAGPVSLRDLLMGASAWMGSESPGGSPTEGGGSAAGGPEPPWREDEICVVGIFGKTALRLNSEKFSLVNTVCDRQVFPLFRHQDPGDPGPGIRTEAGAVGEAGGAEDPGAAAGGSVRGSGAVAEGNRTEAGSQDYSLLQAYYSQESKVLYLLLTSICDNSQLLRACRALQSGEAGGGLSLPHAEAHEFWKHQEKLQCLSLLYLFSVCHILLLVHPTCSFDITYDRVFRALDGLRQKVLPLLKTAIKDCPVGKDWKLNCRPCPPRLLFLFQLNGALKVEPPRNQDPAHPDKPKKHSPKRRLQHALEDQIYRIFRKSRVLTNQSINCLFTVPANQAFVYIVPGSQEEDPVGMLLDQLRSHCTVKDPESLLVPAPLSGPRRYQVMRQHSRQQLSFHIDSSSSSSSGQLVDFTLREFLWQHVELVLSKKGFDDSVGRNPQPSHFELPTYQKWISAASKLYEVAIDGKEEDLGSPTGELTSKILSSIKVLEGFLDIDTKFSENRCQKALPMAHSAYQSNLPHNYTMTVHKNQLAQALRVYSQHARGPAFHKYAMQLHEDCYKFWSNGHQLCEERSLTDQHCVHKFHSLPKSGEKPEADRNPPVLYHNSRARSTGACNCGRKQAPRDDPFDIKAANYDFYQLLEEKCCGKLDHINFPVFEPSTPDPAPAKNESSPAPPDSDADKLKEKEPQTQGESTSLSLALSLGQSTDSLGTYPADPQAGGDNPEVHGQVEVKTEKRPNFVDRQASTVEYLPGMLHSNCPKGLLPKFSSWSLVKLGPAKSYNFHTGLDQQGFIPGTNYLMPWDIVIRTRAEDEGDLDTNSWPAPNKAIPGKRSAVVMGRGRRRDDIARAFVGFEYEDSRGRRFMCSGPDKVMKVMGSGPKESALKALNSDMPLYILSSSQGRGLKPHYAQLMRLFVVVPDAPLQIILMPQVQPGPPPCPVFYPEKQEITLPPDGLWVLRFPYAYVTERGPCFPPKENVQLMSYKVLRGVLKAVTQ
UniProt Q8TBF2: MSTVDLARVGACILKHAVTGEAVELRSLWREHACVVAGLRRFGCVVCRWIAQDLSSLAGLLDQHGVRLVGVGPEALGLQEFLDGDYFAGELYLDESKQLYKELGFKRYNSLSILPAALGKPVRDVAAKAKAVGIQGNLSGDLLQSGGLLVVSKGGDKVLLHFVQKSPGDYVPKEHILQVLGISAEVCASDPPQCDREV
UniProt Q8NC60: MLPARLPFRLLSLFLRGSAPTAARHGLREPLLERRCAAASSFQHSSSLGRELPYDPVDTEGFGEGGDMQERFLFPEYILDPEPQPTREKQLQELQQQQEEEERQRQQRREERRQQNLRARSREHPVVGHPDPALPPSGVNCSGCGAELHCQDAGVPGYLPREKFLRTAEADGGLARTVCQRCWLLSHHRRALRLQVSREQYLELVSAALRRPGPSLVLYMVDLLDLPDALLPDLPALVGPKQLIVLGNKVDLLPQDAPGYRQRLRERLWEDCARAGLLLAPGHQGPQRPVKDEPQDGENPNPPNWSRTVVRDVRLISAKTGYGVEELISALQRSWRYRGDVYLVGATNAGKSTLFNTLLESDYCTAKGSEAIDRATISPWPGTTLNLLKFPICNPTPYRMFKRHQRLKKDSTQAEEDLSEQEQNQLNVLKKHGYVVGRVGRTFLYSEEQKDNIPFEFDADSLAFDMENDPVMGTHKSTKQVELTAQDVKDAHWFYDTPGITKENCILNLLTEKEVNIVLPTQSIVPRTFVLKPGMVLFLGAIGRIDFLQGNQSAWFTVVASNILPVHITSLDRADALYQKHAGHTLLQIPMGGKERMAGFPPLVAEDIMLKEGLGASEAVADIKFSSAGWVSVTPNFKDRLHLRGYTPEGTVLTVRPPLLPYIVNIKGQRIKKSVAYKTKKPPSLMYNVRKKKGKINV
UniProt Q8NFY9: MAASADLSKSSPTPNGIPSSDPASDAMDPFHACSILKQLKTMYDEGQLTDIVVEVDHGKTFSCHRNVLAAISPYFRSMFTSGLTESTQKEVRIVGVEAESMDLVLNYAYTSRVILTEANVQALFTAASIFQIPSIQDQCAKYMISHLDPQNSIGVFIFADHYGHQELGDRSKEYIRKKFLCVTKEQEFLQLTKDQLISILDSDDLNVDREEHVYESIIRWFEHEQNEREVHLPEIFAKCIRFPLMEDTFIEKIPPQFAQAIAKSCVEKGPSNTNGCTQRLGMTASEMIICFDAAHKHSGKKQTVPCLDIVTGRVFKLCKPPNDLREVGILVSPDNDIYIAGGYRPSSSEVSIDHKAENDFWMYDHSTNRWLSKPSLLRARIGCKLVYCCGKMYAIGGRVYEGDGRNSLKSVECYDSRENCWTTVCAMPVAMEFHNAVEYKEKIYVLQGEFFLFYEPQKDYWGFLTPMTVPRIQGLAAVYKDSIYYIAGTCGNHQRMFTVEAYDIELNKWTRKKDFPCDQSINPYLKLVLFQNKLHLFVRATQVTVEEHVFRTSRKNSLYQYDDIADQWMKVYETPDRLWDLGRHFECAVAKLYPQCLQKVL
UniProt Q8N6M0: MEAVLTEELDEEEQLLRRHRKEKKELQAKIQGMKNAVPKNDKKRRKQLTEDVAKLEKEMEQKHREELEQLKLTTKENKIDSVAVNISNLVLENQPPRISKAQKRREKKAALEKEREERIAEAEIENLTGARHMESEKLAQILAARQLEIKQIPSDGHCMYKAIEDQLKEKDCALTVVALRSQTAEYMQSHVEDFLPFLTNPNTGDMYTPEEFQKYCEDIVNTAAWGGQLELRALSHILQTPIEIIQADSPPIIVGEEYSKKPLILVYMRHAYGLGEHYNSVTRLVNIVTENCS
UniProt Q8NHH1: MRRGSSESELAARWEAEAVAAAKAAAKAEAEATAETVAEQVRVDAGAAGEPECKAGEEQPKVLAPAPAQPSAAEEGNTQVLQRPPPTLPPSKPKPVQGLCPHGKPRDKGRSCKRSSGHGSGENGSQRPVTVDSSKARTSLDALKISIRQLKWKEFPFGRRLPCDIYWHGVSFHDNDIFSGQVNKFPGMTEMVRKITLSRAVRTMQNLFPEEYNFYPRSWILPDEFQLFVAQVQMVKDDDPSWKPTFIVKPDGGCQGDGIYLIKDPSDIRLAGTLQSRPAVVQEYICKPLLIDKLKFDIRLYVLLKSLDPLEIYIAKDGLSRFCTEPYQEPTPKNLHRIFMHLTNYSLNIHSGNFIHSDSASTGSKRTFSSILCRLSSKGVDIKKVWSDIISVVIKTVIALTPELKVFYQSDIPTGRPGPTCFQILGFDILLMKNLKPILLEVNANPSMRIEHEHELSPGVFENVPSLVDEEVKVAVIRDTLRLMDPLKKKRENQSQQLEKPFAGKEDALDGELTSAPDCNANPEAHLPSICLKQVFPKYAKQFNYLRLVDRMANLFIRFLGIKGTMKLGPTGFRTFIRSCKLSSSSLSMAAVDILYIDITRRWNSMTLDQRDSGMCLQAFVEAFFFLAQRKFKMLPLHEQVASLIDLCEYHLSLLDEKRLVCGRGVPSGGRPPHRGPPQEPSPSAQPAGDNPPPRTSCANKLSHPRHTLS
UniProt Q8N782: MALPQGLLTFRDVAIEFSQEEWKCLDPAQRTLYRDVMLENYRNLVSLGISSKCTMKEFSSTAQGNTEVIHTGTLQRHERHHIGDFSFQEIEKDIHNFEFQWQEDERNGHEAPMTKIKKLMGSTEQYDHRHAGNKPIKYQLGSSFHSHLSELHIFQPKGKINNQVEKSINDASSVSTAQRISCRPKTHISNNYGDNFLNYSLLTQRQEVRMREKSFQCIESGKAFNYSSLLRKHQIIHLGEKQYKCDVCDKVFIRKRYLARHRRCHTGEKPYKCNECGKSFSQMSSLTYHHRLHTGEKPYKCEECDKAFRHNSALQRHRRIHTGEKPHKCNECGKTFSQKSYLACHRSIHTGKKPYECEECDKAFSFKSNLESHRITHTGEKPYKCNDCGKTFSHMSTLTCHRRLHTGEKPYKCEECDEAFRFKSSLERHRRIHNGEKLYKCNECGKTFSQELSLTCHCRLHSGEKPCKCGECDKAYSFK
UniProt Q8N4U5: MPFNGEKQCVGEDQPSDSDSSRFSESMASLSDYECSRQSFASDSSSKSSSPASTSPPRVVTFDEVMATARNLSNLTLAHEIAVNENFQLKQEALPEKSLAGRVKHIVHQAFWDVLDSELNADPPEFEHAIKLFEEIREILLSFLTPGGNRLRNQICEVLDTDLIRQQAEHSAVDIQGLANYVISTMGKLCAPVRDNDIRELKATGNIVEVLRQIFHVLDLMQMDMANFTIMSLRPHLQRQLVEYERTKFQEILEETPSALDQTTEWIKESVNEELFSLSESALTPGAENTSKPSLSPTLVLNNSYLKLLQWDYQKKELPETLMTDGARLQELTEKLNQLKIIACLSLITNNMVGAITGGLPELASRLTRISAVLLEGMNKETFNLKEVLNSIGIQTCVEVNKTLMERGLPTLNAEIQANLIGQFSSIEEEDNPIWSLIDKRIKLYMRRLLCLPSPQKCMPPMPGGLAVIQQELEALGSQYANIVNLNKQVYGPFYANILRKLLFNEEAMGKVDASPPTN

Q: Which log2 fold change does the source give for “CCDC71L (peptide sequence: DVYGYSSCR, peptide start residue: 97) (UniProt Q8N9Z2)” here?
A: 0.296

Q: For “DNAJB14 (peptide sequence: MEGNRDEAEK, peptide start residue: 1) (UniProt Q8TBM8)”, which log2 fold change is on record?
A: -0.226

Q: Which log2 fold change does the source give for “UniProt Q8ND90 (peptide sequence: LEQVIAGANHSGAIRR, peptide start residue: 291)” here?
A: -0.584

Q: “UniProt Q8ND04 (peptide sequence: HQDPGDPGPGIR, peptide start residue: 82)” was tested. Which log2 fold change did it give?
A: 0.25

Q: How did the log2 fold change turn out when “UniProt Q8TBF2 (peptide sequence: RYNSLSILPAALGKPVR, peptide start residue: 107)” was run?
A: 0.159

Q: How did the log2 fold change turn out when “UniProt Q8NC60 (peptide sequence: AGLLLAPGHQGPQRPVK, peptide start residue: 275)” was run?
A: -0.857

Q: Which log2 fold change does the source give for “KBTBD8 (peptide sequence: IPPQFAQAIAK, peptide start residue: 253) (UniProt Q8NFY9)” here?
A: 0.0537

Q: With “OTUD6B (peptide sequence: QIPSDGHCMYK, peptide start residue: 151) (UniProt Q8N6M0)” as the target, how does the log2 fold change read?
A: 0.107

Q: Which log2 fold change does the source give for “TTLL11 (peptide sequence: WEAEAVAAAK, peptide start residue: 104) (UniProt Q8NHH1)” here?
A: -0.0803

Q: How did the log2 fold change turn out when “UniProt Q8N782 (peptide sequence: HHIGDFSFQEIEK, peptide start residue: 80)” was run?
A: -0.373

Q: With “TCP11L2 (peptide sequence: LLQWDYQK, peptide start residue: 308) (UniProt Q8N4U5)” as the target, how does the log2 fold change read?
A: -0.392
